From PubChem BioAssay AID1347075 (National Center for Advancing Translational Sciences (NCATS), 2019)
Hit rate of the full screen: of about 400,000 compounds, about 5,500 (1.4%) were called active. Inconclusive results, whose numbers are uncertain, are shown with a selection of clear calls. Calls follow the shape of the dose curve; as a rule, active = well fitted cell-killing curve with a large enough effect; inconclusive = small, poorly fitted or top-dose-only effect, or effect the other way; inactive = flat fitted curve, though single readings scatter. Potencies of inconclusive entries are doubtful fits and often do not repeat.

Test: qHTS assay for MDR1-selective chemotherapeutics: Primary screen using the parental adenocarcinoma cell KB-3-1; also: nearly all actives have a fitted effect of over 60% in size
Conditions: KB-3-1 viability, CellTiter-Glo ATP luminescence, 72 h; activity change, negative = cytotoxic: at 46.1 µM (top of the series)
Outline: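 Cytotoxicity in the drug-sensitive parental line KB-3-1 was scored as loss of CellTiter-Glo luminescence following 72 h incubation with compound. Values come from curve fitting of normalized concentration-response data.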
% is scaled to controls: 0 for no effect and ±100 for the full control effect; potency is read from the fitted curve at half-maximal effect.

Question: With `CCCC1CCc2[nH]nc(C(=O)NN)c2C1` (configuration not stated) as the compound, how does the Potency read?
Answer: Its Potency is inconclusive: 25.9 µM [cytotoxic, single point].

Question: Which Potency does the source give for `O=[N+]([O-])c1ccc(-c2cnc(SCc3ccccc3Cl)[nH]2)cc1` here?
Answer: The Potency was inconclusive: 18.4 µM [cytotoxic, partial curve].

Question: With `CCc1cnc2c(c1SC(C(C)=O)C(=O)N(C)C)c(=O)n(C)c(=O)n2C` (configuration not stated) as the compound, how does the Potency read?
Answer: The Potency was “inactive”.

Question: For `COc1ccccc1C(=O)Nc1ccc2c(c1)CN(C(=O)CSC)CC2`, which Potency is on record?
Answer: Its Potency is active: 25.9 µM.

Question: With `CC(C)(C)c1cc[n+](C2=C([O-])c3ccccc3C(=O)/C2=N\S(=O)(=O)c2cccs2)cc1` as the compound, how does the Potency read?
Answer: Its Potency is active: 16.4 µM.

Question: For `C=CCOc1cccc(/C=C2\C(=O)N(Cc3ccc(C)cc3)C(C)=C2C(=O)OC)c1`, which Potency is on record?
Answer: The Potency was inconclusive: 9.2 µM [cytotoxic, partial curve].

Question: With `Cc1ccc(CNC(=O)c2c(Nc3c(C)cccc3C)sc(C(=O)c3ccccc3)c2N)cc1` as the compound, how does the Potency read?
Answer: Its Potency is inconclusive: 29.1 µM [cytotoxic, single point].

Question: With `CCCn1c(=N)n(CCOc2ccc(OC)cc2)c2ccccc21` as the compound, how does the Potency read?
Answer: The Potency was inconclusive: 29.1 µM [cytotoxic, single point].

Question: Which Potency does the source give for `O=C(N/N=C/c1ccccc1Cl)c1[nH]c2ccc(Br)cc2c1-c1ccccc1` here?
Answer: Its Potency is inconclusive: 2.91 µM [cytotoxic, full curve, poor fit].

Question: Which Potency does the source give for `COC(=O)[C@@]12C[C@@H](CC(=O)NCC34CC5CC(CC(C5)C3)C4)C(=O)N(CCc3ccc(OC)c(OC)c3)C1=CCC(C)(C)C2` here?
Answer: The Potency was inconclusive: 29.1 µM [cytotoxic, single point].

Question: For `COc1ccc(N=C2SC(C(=O)N3CCN(c4ccccc4)CC3)CC(=O)N2C)cc1` (configuration not stated), which Potency is on record?
Answer: Its Potency is “inactive”.

Question: For `CO[C@@H]1CN(C)C(=O)c2ccc(NC(=O)C3CCCC3)cc2OC[C@@H](C)N(Cc2ccc(F)cc2)C[C@H]1C`, which Potency is on record?
Answer: The Potency was inconclusive: 16.4 µM [cytotoxic, single point].

Question: Which Potency does the source give for `COc1ccccc1N(C)S(=O)(=O)c1ccc(C(=O)NCc2ccccc2CN2CCCC2)cc1` here?
Answer: Its Potency is inconclusive: 14.6 µM [cytotoxic, partial curve].

Question: With `CCOc1ccc(OCc2ccc(C(=O)N3CCCCC3)o2)cc1` as the compound, how does the Potency read?
Answer: The Potency was inconclusive: 29.1 µM [cytotoxic, single point].

Question: Which Potency does the source give for `O=C(NC1CCCCC1)C(c1ccnc2ccccc12)n1c(=O)c(-c2ccccc2)nc2ccccc21` (configuration not stated) here?
Answer: The Potency was active: 18.4 µM.

Question: For `Cc1ccc(C(=O)C2=C(O)C(=O)N(Cc3ccco3)C2c2cccc(Br)c2)o1` (configuration not stated), which Potency is on record?
Answer: Its Potency is inconclusive: 20.6 µM [cytotoxic, partial curve, poor fit].

Question: For `COc1ccc(CCNC(=O)c2ccc(CNS(=O)(=O)c3cccc(Cl)c3)cc2)cc1OC`, which Potency is on record?
Answer: Its Potency is “inactive”.

Question: For `CCCn1nc(C(=O)OCC(=O)Nc2ccc(C)cc2)c2ccccc2c1=O`, which Potency is on record?
Answer: Its Potency is inconclusive: 0.58 µM [rising, full curve, poor fit].

Question: For `CC1Sc2ccccc2N(CC(=O)N(C(C)C)C(C)C)C1=O` (configuration not stated), which Potency is on record?
Answer: Its Potency is “inactive”.

Question: With `C1=CCC(CN2CCNCC2)CC1` (configuration not stated) as the compound, how does the Potency read?
Answer: The Potency was inconclusive: 32.6 µM [rising, single point].

Question: With `Cc1sc2ncnc(NCCCN3CCCC3=O)c2c1C` as the compound, how does the Potency read?
Answer: The Potency was “inactive”.

Question: For `C=CCn1c(SCc2c(C(=O)OC)sc(N)c2C(=O)OC)nnc1-c1ccc(Cl)cc1`, which Potency is on record?
Answer: The Potency was inconclusive: 18.4 µM [cytotoxic, single point].

Question: With `COc1ccc(C(=O)C2CCCN(Cc3cccn3-c3ccccn3)C2)c(C)c1` (configuration not stated) as the compound, how does the Potency read?
Answer: The Potency was inconclusive: 29.1 µM [cytotoxic, single point].

Question: Which Potency does the source give for `O=C(Nc1cccnc1)c1cc2c(ccc3ccccc32)o1` here?
Answer: The Potency was inconclusive: 0.92 µM [rising, full curve].

Question: With `COc1ccccc1CC(NC(C)=O)C(=O)NC1CCN(C(=O)c2cccc(Cl)c2)CC1` (configuration not stated) as the compound, how does the Potency read?
Answer: Its Potency is inconclusive: 3.66 µM [cytotoxic, partial curve, poor fit].

Question: Which Potency does the source give for `c1ccc(OCCNc2ccn3nc(-c4ccc(OCCN5CCOCC5)cc4)cc3n2)cc1` here?
Answer: Its Potency is inconclusive: 29.1 µM [cytotoxic, single point].

Question: With `O=C(c1cnn(-c2ccc(F)cc2)c1-n1cccc1)N1CCN(c2ccccc2)CC1` as the compound, how does the Potency read?
Answer: Its Potency is inconclusive: 29.1 µM [cytotoxic, single point].

Question: For `Cc1ccc(-n2ncc3c(=O)[nH]c(SCC(=O)N4CCOCC4)nc32)cc1`, which Potency is on record?
Answer: The Potency was “inactive”.

Question: With `CCOC(=O)C1=CCC(c2ccc(C)cc2)N(S(=O)(=O)c2ccc(C)cc2)C1` (configuration not stated) as the compound, how does the Potency read?
Answer: The Potency was inconclusive: 18.4 µM [cytotoxic, partial curve].

Question: Which Potency does the source give for `Cn1cccc1/C=N/NC(=O)c1cc(-c2cccs2)nc2ccccc12` here?
Answer: Its Potency is active: 7.31 µM.

Question: For `O=C(/C=C/c1ccc(Cl)cc1)c1cccnc1`, which Potency is on record?
Answer: Its Potency is inconclusive: 16.4 µM [cytotoxic, single point].

Question: For `CC(NC(=O)C1CCCC1)c1ccc(Br)cc1` (configuration not stated), which activity change, negative = cytotoxic is on record?
Answer: Its activity change, negative = cytotoxic is inconclusive: -31.2% [cytotoxic].

Question: For `CC(C)N(c1ccccc1)c1ccc(NC(=S)NCCN(C)C)cc1`, which Potency is on record?
Answer: Its Potency is inconclusive: 25.9 µM [cytotoxic, single point].

Question: For `COc1cccc(NC(=O)C2=COCCO2)c1`, which Potency is on record?
Answer: The Potency was “inactive”.

Question: With `CN1CCN(c2nc(-c3ccccc3)c3cc(Cl)ccc3n2)CC1` as the compound, how does the Potency read?
Answer: The Potency was inconclusive: 25.9 µM [cytotoxic, partial curve, poor fit].

Question: Which Potency does the source give for `COc1ccc(CCC(=O)N2CCN(S(=O)(=O)c3ccc(OC)c([N+](=O)[O-])c3)CC2)cc1` here?
Answer: Its Potency is “inactive”.

Question: Which Potency does the source give for `Cc1ccc(C(=O)Nc2nc3ccccc3n2CCN2CCCC2)cc1` here?
Answer: The Potency was inconclusive: 16.4 µM [cytotoxic, single point].

Question: For `COc1ccc(C)cc1NS(=O)(=O)c1ccc2oc(=O)c3ncn(C)c3c2c1`, which Potency is on record?
Answer: The Potency was “inactive”.

Question: Which Potency does the source give for `Cc1ccc(NC(=O)c2ccc(C)c(S(=O)(=O)N3CCCCCC3)c2)cc1` here?
Answer: The Potency was inconclusive: 14.6 µM [cytotoxic, partial curve, poor fit].

Question: Which Potency does the source give for `O=[N+]([O-])c1ccc(NC(=S)NCCc2ccccc2)cc1` here?
Answer: The Potency was inconclusive: 29.1 µM [cytotoxic, single point].

Question: For `O=C(c1ccc([N+](=O)[O-])o1)N1CCc2ccccc21`, which Potency is on record?
Answer: The Potency was inconclusive: 23.1 µM [cytotoxic, single point].

Question: Which Potency does the source give for `O=C(NNC(=O)c1cc(-c2ccc(Cl)c(Cl)c2)nc2ccccc12)Nc1ccccc1` here?
Answer: The Potency was inconclusive: 16.4 µM [cytotoxic, single point].
